The source of these data is the supplement of paper PMC4635364.

The subject of test [1] is ReNCell VM. Description: neuronal differentiation score (DCX+ cell fraction vs untreated, manual image score) (score (-3 to 3)); higher = more neuronal differentiation. As to conditions: 2 uM, 2 weeks.
Test [2] concerns ReNCell VM. Description: dopaminergic neuron differentiation score (TH+ cell fraction vs untreated, manual image score) (score (0 to 3)); higher = more TH+ dopaminergic neuron differentiation. As to conditions: 2 uM, 4 weeks, BDNF 10 ng/ml + GDNF 10 ng/ml.

Some of the results follow. Repeats in this data set agree poorly, so a single value says little.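 Cells: ReNCell VM human fetal ventral-midbrain neural progenitors, differentiated mitogen-free. Blinded raters compared doublecortin-stained (early neurons) or tyrosine hydroxylase-stained (dopaminergic neurons) images with untreated wells, where 0 means no change. After repeats and both raters were averaged, compounds scoring 2 or above became hits for retesting.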

Take `CC#C[C@]1(O)CC[C@H]2[C@@H]3CCC4=CC(=O)CCC4=C3[C@@H](c3ccc(N(C)C)cc3)C[C@@]21C`: the neuronal differentiation score in test [1] (library: Spectrum) is inactive: -1. Also, the “dopaminergic neuron differentiation score” value in test [2] (library: Spectrum) is inactive: 0.
Consider `O=C1OC(c2ccc(O)cc2)(c2ccc(O)cc2)c2ccccc21`, for which the neuronal differentiation score in test [1] (library: Spectrum) was inactive: 0. Besides, the “dopaminergic neuron differentiation score” value in test [2] (library: Spectrum) was inactive: 0.
Turning to `CCN1CCCC1CNC(=O)c1cc(S(=O)(=O)CC)c(N)cc1OC` (configuration not stated), the neuronal differentiation score in test [1] (library: Spectrum) is inactive: 0. In addition, the “dopaminergic neuron differentiation score” value in test [2] (library: Spectrum) is inactive: 0.
Turning to `CC1(C)S[C@@H]2[C@H](NC(=O)[C@H](N)c3ccccc3)C(=O)N2[C@H]1C(=O)O`, the neuronal differentiation score in test [1] (library: Spectrum) is inactive: 0. Also, the “dopaminergic neuron differentiation score” value in test [2] (library: Spectrum) was inactive: 0.
`COc1c(N2CCNC(C)C2)c(F)cc2c(=O)c(C(=O)O)cn(C3CC3)c12` (configuration not stated) [Gatifloxacin]: the neuronal differentiation score in test [1] (library: Prestwick) was inactive: 0. Besides, the “dopaminergic neuron differentiation score” value in test [2] (library: Prestwick) was inactive: 0.
For the compound `O=C(c1ccccc1)c1ccc2n1CCC2C(=O)O` (configuration not stated) [Ketorolac tromethamine], in test [1] (library: Prestwick), the neuronal differentiation score was inactive: 0. Besides, the “dopaminergic neuron differentiation score” value in test [2] (library: Prestwick) was inactive: 0.
As for `O=C(O)c1ccc(NC2OC[C@@H](O)[C@H](O)[C@H]2O)cc1` (some centres not stated) [benaxibine], the neuronal differentiation score in test [1] (library: Natural) was inactive: -1. The “dopaminergic neuron differentiation score” value in test [2] (library: Natural) is inactive: 0.
As for `Cc1cc2nc3c(=O)[nH]c(=O)nc-3n(C[C@H](O)[C@H](O)[C@H](O)CO)c2cc1C` [Riboflavine], the neuronal differentiation score in test [1] (library: Phytochemical) was inactive: 0. Also, in test [2] (library: Phytochemical), the “dopaminergic neuron differentiation score” value was inactive: 0.
`CCCc1nn(C)c2c(=O)[nH]c(-c3cc(S(=O)(=O)N4CCN(C)CC4)ccc3OCC)nc12` [Sildenafil]: in test [1] (library: Prestwick), the neuronal differentiation score was inactive: 0. In addition, the “dopaminergic neuron differentiation score” value in test [2] (library: Prestwick) is inactive: 0.
Turning to `CC(=O)NCCCS(=O)(=O)O`, the neuronal differentiation score in test [1] (library: Spectrum) was inactive: 0. Further, the “dopaminergic neuron differentiation score” value in test [2] (library: Spectrum) is inactive: 0.
Turning to `COC(=O)C1C(=O)C(C(=O)C=Cc2ccco2)C(=O)CC1(C)C` (configuration not stated), the neuronal differentiation score in test [1] (library: Natural) was inactive: -1. The “dopaminergic neuron differentiation score” value in test [2] (library: Natural) is inactive: 1.
With `COC1=CC(=O)C=C(OC)C1=O`, in test [1] (library: Spectrum), the neuronal differentiation score was inactive: 0. Besides, the “dopaminergic neuron differentiation score” value in test [2] (library: Spectrum) is inactive: 0.
As to `COc1cc(OC)c2c(=O)cc(-c3ccccc3)oc2c1`, in test [1] (library: Spectrum), the neuronal differentiation score was inactive: 0. For the same compound, the “dopaminergic neuron differentiation score” value in test [2] (library: Spectrum) was inactive: 0.
Take `O=c1oc(-c2ccc(C(F)(F)F)cc2)nn1Cc1cc(Cl)ccc1O`: the neuronal differentiation score in test [1] (library: Tocriscreen) was inactive: 0. In addition, the “dopaminergic neuron differentiation score” value in test [2] (library: Tocriscreen) is inactive: 0.
For the compound `N=C(N)NCC1COC2(CCCCC2)O1` (configuration not stated), the neuronal differentiation score in test [1] (library: Spectrum) is inactive: 0. The “dopaminergic neuron differentiation score” value in test [2] (library: Spectrum) is inactive: 0.
Regarding `COc1cc(/C=C/C(=O)CC(=O)/C=C/c2ccc(O)c(OC)c2)ccc1O`, the neuronal differentiation score in test [1] (library: Spectrum) is inactive: 0. For the same compound, the “dopaminergic neuron differentiation score” value in test [2] (library: Spectrum) is active: 3.
For the compound `COc1cc2nc3occc3c(OC)c2cc1OC` [Kokusaginine], in test [1] (library: Phytochemical), the neuronal differentiation score is inactive: 0. For the same compound, the “dopaminergic neuron differentiation score” value in test [2] (library: Phytochemical) is inactive: 0.
For `C[C@H]1CCC2[C@](C)(CO)[C@@H](O)CC[C@]2(C)[C@@]12CCC(CO)(CCO)O2` (some centres not stated) [9,13-epoxy-3,15,16,18-labdanetetrol], the neuronal differentiation score in test [1] (library: Natural) was inactive: 0. Moreover, the “dopaminergic neuron differentiation score” value in test [2] (library: Natural) is inactive: 0.
Turning to `O=C(O)CCCCC(=O)O`, the neuronal differentiation score in test [1] (library: Spectrum) was inactive: 0. Further, in test [2] (library: Spectrum), the “dopaminergic neuron differentiation score” value was inactive: 0.
On to `COc1ccc2c3c1O[C@H]1C[C@@H](O)C=C[C@@]31CCN(C)C2`, for which the neuronal differentiation score in test [1] (library: Spectrum) is inactive: 0. Also, in test [2] (library: Spectrum), the “dopaminergic neuron differentiation score” value is inactive: 0.
Consider `O=C(O)CCCN1C(=O)c2cccc3cccc(c23)C1=O`, for which the neuronal differentiation score in test [1] (library: Spectrum) is inactive: -1. The “dopaminergic neuron differentiation score” value in test [2] (library: Spectrum) is inactive: 0.
For `C[N+](C)(C)CCOC(N)=O`, in that order: inactive: 0 and inactive: 0.
For `O=C(NC(Cc1cc(=O)[nH]c2ccccc12)C(=O)O)c1ccc(Cl)cc1` (configuration not stated) [Rebamipide], the neuronal differentiation score in test [1] (library: Prestwick) was inactive: 0. The “dopaminergic neuron differentiation score” value in test [2] (library: Prestwick) was inactive: 0.
Consider `Nc1ccc(S(=O)(=O)Nc2nccs2)cc1` [Sulfathiazole], for which, in test [1] (library: Prestwick), the neuronal differentiation score was inactive: 0. The “dopaminergic neuron differentiation score” value in test [2] (library: Prestwick) was inactive: 0.
Regarding `CN(C)CCOC(c1ccccc1)c1ccccc1`, the neuronal differentiation score in test [1] (library: Spectrum) is inactive: 0. The “dopaminergic neuron differentiation score” value in test [2] (library: Spectrum) is inactive: 0.
Take `CCN(CC)CCNC(=O)c1ccc(N)cc1`: the neuronal differentiation score in test [1] (library: Spectrum) was inactive: 0. Also, in test [2] (library: Spectrum), the “dopaminergic neuron differentiation score” value was inactive: 0.
As to `CC(C)[C@H]1CC[C@H](C(=O)N[C@H](Cc2ccccc2)C(=O)O)CC1`, the neuronal differentiation score in test [1] (library: Spectrum) was inactive: 0. In test [2] (library: Spectrum), the “dopaminergic neuron differentiation score” value was inactive: 0.
`O=C1c2ccccc2C(Cc2ccnc(F)c2)(Cc2ccnc(F)c2)c2ccccc21`: the neuronal differentiation score in test [1] (library: Tocriscreen) is inactive: 0. In test [2] (library: Tocriscreen), the “dopaminergic neuron differentiation score” value is inactive: 0.
For the compound `CNS(=O)(=O)Cc1ccc2[nH]cc(CCN(C)C)c2c1`, the neuronal differentiation score in test [1] (library: Spectrum) was inactive: 0. In addition, the “dopaminergic neuron differentiation score” value in test [2] (library: Spectrum) is inactive: 0.
As to `N#C[C@@H]1C[C@@H]2C[C@@H]2N1C(=O)[C@@H](N)C12CC3CC(CC(O)(C3)C1)C2`, the neuronal differentiation score in test [1] (library: Spectrum) was inactive: 0. The “dopaminergic neuron differentiation score” value in test [2] (library: Spectrum) was inactive: 0.
Turning to `COC(=O)C[C@H]1C(C)(C)C(=O)[C@@H]2CC3=C4CC(=O)O[C@@H](c5ccoc5)[C@]4(C)CC[C@@H]3[C@@]1(C)C2=O`, in test [1] (library: Spectrum), the neuronal differentiation score is inactive: 0. Besides, the “dopaminergic neuron differentiation score” value in test [2] (library: Spectrum) was inactive: 0.
As to `O=S(=O)(O)CCS`, in test [1] (library: Spectrum), the neuronal differentiation score was inactive: 0. Besides, in test [2] (library: Spectrum), the “dopaminergic neuron differentiation score” value is inactive: 0.
For the compound `Nc1ccccc1C(=O)CC(N)C(=O)O` (configuration not stated), the neuronal differentiation score in test [1] (library: Spectrum) was inactive: 0. Besides, the “dopaminergic neuron differentiation score” value in test [2] (library: Spectrum) is inactive: 0.
On to `COCc1nc2c([nH]1)c(=O)n(C)c(=O)n2CC(C)C` [8-Methoxymethyl-3-isobutyl-1-methylxanthine], for which, in test [1] (library: LOPAC), the neuronal differentiation score was inactive: 0. For the same compound, the “dopaminergic neuron differentiation score” value in test [2] (library: LOPAC) is inactive: 0.
Take `CC(N)C12CC3CC(CC(C3)C1)C2` (configuration not stated): the neuronal differentiation score in test [1] (library: Spectrum) is inactive: 0. The “dopaminergic neuron differentiation score” value in test [2] (library: Spectrum) was inactive: 0.
`CCC1(c2ccccc2)C(=O)NCNC1=O`: the neuronal differentiation score in test [1] (library: Spectrum) was inactive: 0. Also, the “dopaminergic neuron differentiation score” value in test [2] (library: Spectrum) is inactive: 0.
